At least one structure is not confirmed: it was looked up by name or label, or the drawing left a doubt.
System: connexin genes in HPDE6c7 cells
Experiment: RT-PCR of gap junction (connexin) gene expression
Type: cell-based, human
Details: 72 hours incubation

C=C[C@@]1(C)CC(=O)[C@]2(O)[C@@]3(C)[C@@H](O)CCC(C)(C)[C@@H]3[C@H](O)[C@H](OC(C)=O)[C@@]2(C)O1 [forskolin]
Cx36 expression: detected
